## Melanoma cell counts after drug treatment

Source: doi:10.1371/journal.pone.0140310, primary screening data, rounded.

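The test systems are human melanoma cell lines, treated with two drugs together for 72 h and then stained and imaged. Each value is the count of nuclei relative to DMSO-treated wells, in %, so that 100 equals the control. Every drug was used at one fixed concentration, the higher of two screened. These are primary screening values without error estimates.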
Only some of the drugs and lines screened are listed, without regard to their results.
An entry leaves out what has no value listed here.
A dash means that no value is listed here.

Drugs:
GW441756: Cn1cc(/C=C2\C(=O)Nc3cccnc32)c2ccccc21 at 2 µM
NVP-TAE684: COc1cc(N2CCC(N3CCN(C)CC3)CC2)ccc1Nc1ncc(Cl)c(Nc2ccccc2S(=O)(=O)C(C)C)n1 at 0.4 µM
darinaparsin: C[As](C)SC[C@H](NC(=O)CC[C@H](N)C(=O)O)C(=O)NCC(=O)O at 2 µM
GW9662: O=C(Nc1ccccc1)c1cc([N+](=O)[O-])ccc1Cl at 10 µM
CHIR-265: Cn1c(Nc2ccc(C(F)(F)F)cc2)nc2cc(Oc3ccnc(-c4ncc(C(F)(F)F)[nH]4)c3)ccc21 at 0.4 µM
LFM-A13: C/C(O)=C(\C#N)C(=O)Nc1cc(Br)ccc1Br at 10 µM
lestaurtinib: C[C@]12O[C@H](C[C@]1(O)CO)n1c3ccccc3c3c4c(c5c6ccccc6n2c5c31)CNC4=O at 0.02 µM
T0901317: O=S(=O)(c1ccccc1)N(CC(F)(F)F)c1ccc(C(O)(C(F)(F)F)C(F)(F)F)cc1 at 7 µM
ruxolitinib: N#CC[C@H](C1CCCC1)n1cc(-c2ncnc3[nH]ccc23)cn1 at 5 µM
sorafenib: CNC(=O)c1cc(Oc2ccc(NC(=O)Nc3ccc(Cl)c(C(F)(F)F)c3)cc2)ccn1 at 2 µM

Combination,WM451Lu,COLO 792,COLO 800,WM3619,COLO 829,C32
lestaurtinib + darinaparsin,119,91.9,109,93.9,90.5,87.5
GW441756 + sorafenib,114,114,82.3,105,118,86.0
CHIR-265 + sorafenib,37.9,32.2,105,46.7,52.1,74.6
darinaparsin + GW9662,55.8,93.6,42.2,62.5,69.0,101
GW441756 + LFM-A13,83.5,94.3,59.2,51.6,119,95.2
GW9662 + CHIR-265,51.2,31.0,45.6,32.3,72.8,74.4
NVP-TAE684 + ruxolitinib,67.3,60.8,71.7,69.9,87.7,65.0
sorafenib + LFM-A13,85.5,92.1,186,104,108,81.6
GW9662 + lestaurtinib,78.3,61.4,41.1,67.4,69.4,106
T0901317 + sorafenib,88.7,133,179,120,89.8,92.2
T0901317 + CHIR-265,53.5,29.2,82.5,36.3,54.0,52.2
GW441756 + ruxolitinib,105,104,149,108,127,80.1
GW441756 + darinaparsin,75.1,87.3,87.9,65.7,101,113
GW9662 + LFM-A13,77.7,89.4,123,73.6,53.3,117
ruxolitinib + GW9662,85.4,86.8,53.3,57.7,59.2,90.8
sorafenib + lestaurtinib,95.1,60.9,87.6,89.5,91.6,96.4
ruxolitinib + lestaurtinib,77.6,44.3,97.7,90.4,84.2,76.2
NVP-TAE684 + lestaurtinib,68.9,59.9,51.7,72.5,88.5,80.7
lestaurtinib + T0901317,110,70.7,140,112,82.4,97.4
GW9662 + sorafenib,110,119,75.8,67.9,98.6,120
NVP-TAE684 + CHIR-265,53.2,21.1,64.5,44.5,66.4,40.7
CHIR-265 + LFM-A13,49.2,26.0,66.3,57.6,91.7,73.6
CHIR-265 + lestaurtinib,56.7,31.4,50.6,56.8,76.1,74.1
GW441756 + GW9662,85.3,97.3,77.8,84.7,69.8,92.8
T0901317 + GW9662,89.4,98.2,60.0,58.6,49.9,88.7
ruxolitinib + LFM-A13,106,88.3,86.2,76.5,111,76.7
darinaparsin + T0901317,67.5,94.6,48.7,77.7,69.0,115
GW441756 + lestaurtinib,89.1,59.1,63.3,78.6,70.5,101
darinaparsin + NVP-TAE684,70.0,70.0,54.1,72.8,80.0,96.2
CHIR-265 + darinaparsin,36.0,22.4,157,34.9,51.3,58.0
darinaparsin + sorafenib,70.5,88.5,65.0,64.3,72.6,99.3
T0901317 + ruxolitinib,130,90.2,71.2,67.6,-,93.4
darinaparsin + LFM-A13,64.1,86.3,101,81.2,78.8,110
NVP-TAE684 + GW9662,81.7,97.2,39.4,63.2,54.6,68.4
LFM-A13 + NVP-TAE684,74.1,98.2,64.8,91.3,87.1,106
GW441756 + CHIR-265,57.2,22.9,44.2,47.6,64.2,39.3

Repeated from the top, 2 entries:

- lestaurtinib + darinaparsin | WM451Lu: 119; COLO 792: 91.9; COLO 800: 109; WM3619: 93.9; COLO 829: 90.5; C32: 87.5
- GW441756 + sorafenib | WM451Lu: 114; COLO 792: 114; COLO 800: 82.3; WM3619: 105; COLO 829: 118; C32: 86.0